Some results were stated once for a whole list of compounds, not compound by compound.
How the values were obtained:
Format in all cases: in vivo
Plutella xylostella = Plutella xylostella (diamond back moth) larva test on artificial diet; conditions: application rate 200 ppm (concentration in well 18 ppm), L2 larvae, larval mortality and growth regulation after 6 days
Heliothis virescens = Heliothis virescens (tobacco budworm) egg/larva test on artificial diet; conditions: application rate 200 ppm (concentration in well 18 ppm), eggs 0-24 h old on artificial diet; egg mortality, larval mortality, growth regulation after 4 days
Spodoptera littoralis = Spodoptera littoralis (Egyptian cotton leafworm) cotton leaf disc spray test; conditions: application rate 200 ppm, cotton leaf discs, 5 L1 larvae; mortality, feeding behavior, growth regulation 3 days after treatment
Thrips tabaci = Thrips tabaci (onion thrips) sunflower leaf disc spray test; conditions: application rate 200 ppm, sunflower leaf discs, thrip population of mixed ages; mortality after 7 days
Diabrotica balteata = Diabrotica balteata (corn root worm) larva test on artificial diet; conditions: application rate 200 ppm (concentration in well 18 ppm), L2 larvae, larval mortality and growth regulation after 5 days
Tetranychus urticae = Tetranychus urticae (two-spotted spider mite) bean leaf disc spray test; conditions: application rate 200 ppm, bean leaf discs, mite populations of mixed ages; egg, larval and adult mortality 8 days later

CCN1OC[C@@H](NC(=O)c2ccc(C3=NC[C@@](c4cc(Cl)cc(Cl)c4)(C(F)(F)F)C3)cc2C)C1=O [Compound A14, 4-[(R)-4-(3,5-Dichloro-phenyl)-4-trifluoromethyl-4,5-dihydro-3H-pyrrol-2-yl]-N—((R)-2-ethyl-3-oxo-isoxazolidin-4-yl)-2-methyl-benzamide]
at least 80%: control of Plutella xylostella (Plutella xylostella) | control of Heliothis virescens (Heliothis virescens) | control of Spodoptera littoralis (Spodoptera littoralis) | control of Thrips tabaci (Thrips tabaci) | control of Diabrotica balteata (Diabrotica balteata) | control of Tetranychus urticae (Tetranychus urticae)

Reference: patent publication US9545106B2, “Insecticidal compounds” (Syngenta Participations AG, priority 2011, dated 2017)
